# Assay results: PMC10721899, “The bactericidal and antibiofilm effects of a lysine-substituted hybrid peptide, CM-10K14K, on biofilm-forming Staphylococcus epidermidis” (Scientific Reports, 2023)
# Tested on: human red blood cells (hRBCs)
# Assay: Hemolytic activity
# Type: cell-based
# Conditions: HC50 (hRBCs) / MIC (S. epidermidis)
# Method: The quantity of hemoglobin released by treatment was used as a measure of a peptide’s hemolytic activity against human red blood cells (hRBCs)[23]. Venous blood was collected from a healthy volunteer in plastic blood collection tubes with lithium heparin (BD Vacutainer™, USA) and centrifuged at 2000×g for 5 min to separate the plasma and buffy coat. The hRBCs obtained were washed at least three times and diluted to 4% (vol/vol) in phosphate-buffered saline (PBS; Caisson Laboratories, USA). The same volume of the hRBC suspension (50 µL) was incubated with twofold, serially diluted concentrations (0.98–250 μg/mL) of peptide dissolved in PBS for 1 h at 37 °C. The hRBCs incubated in 0.1% Triton X-100 and PBS were used as positive (100% hemolysis) and negative (0% hemolysis) controls, respectively. The release of hemoglobin into the supernatants was monitored by measurement of absorbance at 405 nm using a Multiskan SkyHigh microplate reader (Thermo Scientific™, Singapore). The percentage of hemolysis was calculated as previously described.
row,Substance,"TI, therapeutic index (ratio of HC50 to MIC)"
1,"H-KWKLFKKIGAVLKVL-NH2 [C(1–7)M(2–9), KWKLFKKIGAVLKVL-NH2, reference compound]",11.38
2,"KWKLFKKIGAVLKVLA-NH2 [CM-A, KWKLFKKIGAVLKVLA-NH2]",5.45
3,"KWKLFKKIGKVLKKL-NH2 [CM-10K14K, KWKLFKKIGKVLKKL-NH2]",143.71
4,"KWKLFKKIGKVLKVL-NH2 [CM-10K, KWKLFKKIGKVLKVL-NH2]",21.94
5,"VWKLFKKIGAVLKKL-NH2 [CM-1V14K, VWKLFKKIGAVLKKL-NH2]",16.86
6,"VWKLFKKIGKVLKKL-NH2 [CM-1V10K14K, VWKLFKKIGKVLKKL-NH2]",30.41

# Ends that are not written are not given here.
